{"source": "patent US20060177907A1", "about": "(University of California, published 2006)", "key": {"[1]": {"target": "T1, trx-hrg, thioredoxin-heregulin fusion with a C-terminal His and S-tag (human)", "T1 sequence": "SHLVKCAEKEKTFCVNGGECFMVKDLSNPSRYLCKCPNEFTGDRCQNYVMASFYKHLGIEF", "test": "SPR (BIAcore), immobilized trx-hrg"}, "[2]": {"target": "T1, trx-hrg, thioredoxin-heregulin fusion with a C-terminal His and S-tag (human)", "test": "SPR (BIAcore), trx-hrg immobilized on a CM5 chip, HER3-ECD^I-II in solution"}, "[3]": {"target": "T1, trx-hrg, thioredoxin-heregulin fusion with a C-terminal His and S-tag (human)", "test": "SPR (BIAcore), immobilized trx-hrg (FIG. 7B legend)"}, "[4]": {"target": "T1, trx-hrg, thioredoxin-heregulin fusion with a C-terminal His and S-tag (human)", "test": "pull-down on S-tagged hrg on S-protein resin (FIG. 10A legend)"}, "[5]": {"target": "T1, trx-hrg, thioredoxin-heregulin fusion with a C-terminal His and S-tag (human)", "test": "pull-down on trx-hrg-coupled S-protein agarose"}}, "note": "Results are given in words; binding and its absence hold for the method and conditions named. Some binding calls cover weakened binding; strength is not graded here. Tags and fused reporters may be left off the sequences shown.", "data": [{"molecule": "HER3^I-II K51A (from UniProt P21860 20-329) (receptor)", "values": [{"measurement": "binding", "setting": "[1]", "result": "binds"}]}, {"molecule": "HER3^I-II E43A (from UniProt P21860 20-329) (receptor)", "values": [{"measurement": "binding", "setting": "[1]", "result": "binds"}]}, {"molecule": "HER3^I-II V66A (from UniProt P21860 20-329) (receptor)", "values": [{"measurement": "binding", "setting": "[1]", "result": "binds"}]}, {"molecule": "HER3-ECD^I-II (residues 20-329), recombinant domains I and II of HER3 expressed in Drosophila S2 cells (receptor, not shown: small tags and cut ends, Monomer by light scattering and ultracentrifugation; The N-terminal Drosophila leader comes from the vector; the protein is secreted; also called HER3^I-II; H3 I-II) SEVGNSQAVCPGTLNGLSVTGDAENQYQTLYKLYERCEVVMGNLEIVLTGHNADLSFLQWIREVTGYVLVAMNEFSTLPLPNLRVVRGTQVYDGKFAIFVMLNYNTNSSHALRQLRLTQLTEILSGGVYIEKNDKLCHMDTIDWRDIVRDRDAEIVVKDNGRSCPPCHEVCKGRCWGPGSEDCQTLTKTICAPQCNGHCFGPNPNQCCHDECAGGCSGPQDTDCFACRHFNDSGACVPRCPQPLVYNKLTFQLEPNPHTKYQYGGVCVASCPHNFVVDQTSCVRACPPDKMEVDKNGLKMCEPCGGLCPK", "values": [{"measurement": "binding", "setting": "[2]", "result": "binds"}, {"measurement": "binding", "setting": "[3]", "result": "binds"}, {"measurement": "binding", "setting": "[4]", "result": "binds"}, {"measurement": "binding", "setting": "[5]", "result": "binds"}]}]}
